This is one part of the list.
compound: COc1ccc(Cn2ccc3ccc(C(=O)NO)cc32)cc1; assay: dose-dependent thermal stabilisation call (2D-TPP, DLPTP, 10% FDR) (binary (1 = stabilised)); higher = stabilised by the compound; details: system: HL-60 intact cells; concentration range 0.04-10 µM

Protein sequences, listed by entry. Tags and fused reporters are not part of them. Lines headed by an entry give the natural chain unless they say otherwise; changes in a name come on top.
UniProt Q7Z4G1, whole entry: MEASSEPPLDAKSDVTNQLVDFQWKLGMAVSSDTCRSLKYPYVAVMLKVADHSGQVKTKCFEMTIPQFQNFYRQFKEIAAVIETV
UniProt Q96FN4: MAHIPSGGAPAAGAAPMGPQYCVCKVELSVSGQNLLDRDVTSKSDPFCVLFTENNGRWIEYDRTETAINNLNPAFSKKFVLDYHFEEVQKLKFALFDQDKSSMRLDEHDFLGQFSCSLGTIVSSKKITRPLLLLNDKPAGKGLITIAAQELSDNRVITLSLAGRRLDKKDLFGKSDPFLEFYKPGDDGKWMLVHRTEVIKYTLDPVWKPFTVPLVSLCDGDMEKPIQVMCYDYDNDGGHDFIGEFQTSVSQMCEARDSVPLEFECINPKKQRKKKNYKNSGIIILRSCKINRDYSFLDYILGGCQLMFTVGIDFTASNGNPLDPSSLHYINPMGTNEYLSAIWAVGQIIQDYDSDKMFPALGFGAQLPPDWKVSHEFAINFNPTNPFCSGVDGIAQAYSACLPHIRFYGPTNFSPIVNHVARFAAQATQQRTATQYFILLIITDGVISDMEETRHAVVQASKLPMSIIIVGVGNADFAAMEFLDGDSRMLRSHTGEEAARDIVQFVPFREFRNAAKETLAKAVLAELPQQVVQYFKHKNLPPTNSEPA
UniProt Q5T1V6: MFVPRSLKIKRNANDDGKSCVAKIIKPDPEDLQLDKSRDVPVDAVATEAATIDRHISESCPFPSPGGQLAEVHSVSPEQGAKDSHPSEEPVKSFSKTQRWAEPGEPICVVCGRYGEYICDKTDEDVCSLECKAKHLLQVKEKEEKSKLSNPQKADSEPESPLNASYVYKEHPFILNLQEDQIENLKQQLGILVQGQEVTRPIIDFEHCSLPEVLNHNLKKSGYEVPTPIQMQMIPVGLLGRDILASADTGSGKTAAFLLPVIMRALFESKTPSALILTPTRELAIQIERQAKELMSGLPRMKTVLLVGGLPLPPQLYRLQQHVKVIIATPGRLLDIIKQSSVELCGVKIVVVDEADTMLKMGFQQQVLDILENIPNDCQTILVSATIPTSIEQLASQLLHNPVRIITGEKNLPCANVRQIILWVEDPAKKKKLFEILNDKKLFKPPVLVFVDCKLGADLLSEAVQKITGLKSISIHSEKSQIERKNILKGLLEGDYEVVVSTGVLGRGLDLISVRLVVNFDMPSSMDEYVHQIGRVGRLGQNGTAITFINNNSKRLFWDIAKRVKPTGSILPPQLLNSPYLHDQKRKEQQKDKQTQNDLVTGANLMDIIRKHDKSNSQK
UniProt Q9UBI1, whole entry: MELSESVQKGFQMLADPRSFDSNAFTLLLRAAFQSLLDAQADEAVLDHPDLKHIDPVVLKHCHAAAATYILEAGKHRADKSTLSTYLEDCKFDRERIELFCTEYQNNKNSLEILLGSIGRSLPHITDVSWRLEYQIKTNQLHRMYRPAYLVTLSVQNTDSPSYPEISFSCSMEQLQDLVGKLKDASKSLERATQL
UniProt O43169: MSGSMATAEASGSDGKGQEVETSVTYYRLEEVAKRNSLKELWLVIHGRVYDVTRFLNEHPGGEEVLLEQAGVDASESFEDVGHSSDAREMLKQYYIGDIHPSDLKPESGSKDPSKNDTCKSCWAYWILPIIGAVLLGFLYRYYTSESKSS
UniProt P24311, whole entry: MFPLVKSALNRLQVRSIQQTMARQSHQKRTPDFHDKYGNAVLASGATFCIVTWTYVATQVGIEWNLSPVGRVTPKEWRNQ
UniProt O75907: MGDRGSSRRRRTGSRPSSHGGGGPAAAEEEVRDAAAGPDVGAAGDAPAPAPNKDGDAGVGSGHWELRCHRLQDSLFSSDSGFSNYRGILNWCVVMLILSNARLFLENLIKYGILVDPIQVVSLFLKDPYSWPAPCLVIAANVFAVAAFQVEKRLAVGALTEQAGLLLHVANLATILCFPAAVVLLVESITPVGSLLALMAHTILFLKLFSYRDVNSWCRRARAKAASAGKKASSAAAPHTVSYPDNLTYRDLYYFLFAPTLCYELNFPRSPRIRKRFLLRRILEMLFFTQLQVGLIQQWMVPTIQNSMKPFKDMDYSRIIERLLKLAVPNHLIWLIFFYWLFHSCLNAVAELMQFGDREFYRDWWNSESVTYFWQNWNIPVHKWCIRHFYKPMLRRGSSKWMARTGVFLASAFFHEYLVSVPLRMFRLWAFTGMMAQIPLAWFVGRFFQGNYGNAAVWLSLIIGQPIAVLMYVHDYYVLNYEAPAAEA
UniProt O43583: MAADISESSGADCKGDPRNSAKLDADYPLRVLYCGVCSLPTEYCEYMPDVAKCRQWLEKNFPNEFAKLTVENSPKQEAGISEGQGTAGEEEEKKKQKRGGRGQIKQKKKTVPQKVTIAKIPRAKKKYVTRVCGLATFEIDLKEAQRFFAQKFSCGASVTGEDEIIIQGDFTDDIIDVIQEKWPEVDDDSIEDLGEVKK
UniProt Q9NUQ3: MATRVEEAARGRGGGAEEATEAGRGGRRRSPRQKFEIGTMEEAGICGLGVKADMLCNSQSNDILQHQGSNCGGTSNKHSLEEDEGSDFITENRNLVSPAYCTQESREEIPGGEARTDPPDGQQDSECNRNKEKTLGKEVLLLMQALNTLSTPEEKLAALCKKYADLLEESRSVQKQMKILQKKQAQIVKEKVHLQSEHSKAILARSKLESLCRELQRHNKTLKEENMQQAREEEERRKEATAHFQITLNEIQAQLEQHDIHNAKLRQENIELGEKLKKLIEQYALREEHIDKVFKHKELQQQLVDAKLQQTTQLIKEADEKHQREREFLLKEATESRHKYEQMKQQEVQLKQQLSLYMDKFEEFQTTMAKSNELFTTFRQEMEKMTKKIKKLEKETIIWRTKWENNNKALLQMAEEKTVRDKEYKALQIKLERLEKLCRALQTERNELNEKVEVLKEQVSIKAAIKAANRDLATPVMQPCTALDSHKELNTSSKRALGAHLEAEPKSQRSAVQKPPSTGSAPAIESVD
UniProt Q8WVC6: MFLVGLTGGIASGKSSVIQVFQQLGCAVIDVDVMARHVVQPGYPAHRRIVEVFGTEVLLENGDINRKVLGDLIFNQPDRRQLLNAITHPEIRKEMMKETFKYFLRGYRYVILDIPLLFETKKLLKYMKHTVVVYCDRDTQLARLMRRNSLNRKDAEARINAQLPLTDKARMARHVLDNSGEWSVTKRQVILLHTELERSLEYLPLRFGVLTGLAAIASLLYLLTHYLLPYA
UniProt P48729: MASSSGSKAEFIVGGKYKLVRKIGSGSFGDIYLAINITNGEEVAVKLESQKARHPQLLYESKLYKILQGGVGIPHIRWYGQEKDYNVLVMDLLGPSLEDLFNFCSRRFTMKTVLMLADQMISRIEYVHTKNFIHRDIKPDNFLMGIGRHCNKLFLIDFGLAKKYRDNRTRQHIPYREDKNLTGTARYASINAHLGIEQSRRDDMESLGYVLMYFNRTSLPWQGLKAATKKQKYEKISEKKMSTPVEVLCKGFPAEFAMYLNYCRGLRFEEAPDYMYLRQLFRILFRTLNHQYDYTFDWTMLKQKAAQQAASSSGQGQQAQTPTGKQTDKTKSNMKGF
UniProt P04080: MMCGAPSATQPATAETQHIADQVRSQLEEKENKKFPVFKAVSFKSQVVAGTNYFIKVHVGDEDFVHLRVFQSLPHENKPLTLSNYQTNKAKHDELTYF
UniProt P36551: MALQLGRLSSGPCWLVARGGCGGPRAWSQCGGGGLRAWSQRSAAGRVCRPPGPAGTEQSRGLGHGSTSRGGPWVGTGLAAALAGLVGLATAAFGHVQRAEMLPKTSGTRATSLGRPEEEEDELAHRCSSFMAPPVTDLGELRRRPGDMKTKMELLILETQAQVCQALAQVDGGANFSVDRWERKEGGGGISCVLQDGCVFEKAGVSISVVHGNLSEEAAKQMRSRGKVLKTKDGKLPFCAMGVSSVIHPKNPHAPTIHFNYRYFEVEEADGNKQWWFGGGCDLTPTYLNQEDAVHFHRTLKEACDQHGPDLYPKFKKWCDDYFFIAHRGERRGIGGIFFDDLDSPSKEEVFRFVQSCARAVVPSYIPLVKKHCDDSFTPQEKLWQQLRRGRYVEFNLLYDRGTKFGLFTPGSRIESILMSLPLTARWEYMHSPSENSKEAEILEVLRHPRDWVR
UniProt Q14019: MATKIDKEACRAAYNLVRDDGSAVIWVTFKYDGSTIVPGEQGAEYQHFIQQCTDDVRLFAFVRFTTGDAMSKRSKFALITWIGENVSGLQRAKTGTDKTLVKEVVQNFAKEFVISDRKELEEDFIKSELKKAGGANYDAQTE
UniProt Q8N8Z6: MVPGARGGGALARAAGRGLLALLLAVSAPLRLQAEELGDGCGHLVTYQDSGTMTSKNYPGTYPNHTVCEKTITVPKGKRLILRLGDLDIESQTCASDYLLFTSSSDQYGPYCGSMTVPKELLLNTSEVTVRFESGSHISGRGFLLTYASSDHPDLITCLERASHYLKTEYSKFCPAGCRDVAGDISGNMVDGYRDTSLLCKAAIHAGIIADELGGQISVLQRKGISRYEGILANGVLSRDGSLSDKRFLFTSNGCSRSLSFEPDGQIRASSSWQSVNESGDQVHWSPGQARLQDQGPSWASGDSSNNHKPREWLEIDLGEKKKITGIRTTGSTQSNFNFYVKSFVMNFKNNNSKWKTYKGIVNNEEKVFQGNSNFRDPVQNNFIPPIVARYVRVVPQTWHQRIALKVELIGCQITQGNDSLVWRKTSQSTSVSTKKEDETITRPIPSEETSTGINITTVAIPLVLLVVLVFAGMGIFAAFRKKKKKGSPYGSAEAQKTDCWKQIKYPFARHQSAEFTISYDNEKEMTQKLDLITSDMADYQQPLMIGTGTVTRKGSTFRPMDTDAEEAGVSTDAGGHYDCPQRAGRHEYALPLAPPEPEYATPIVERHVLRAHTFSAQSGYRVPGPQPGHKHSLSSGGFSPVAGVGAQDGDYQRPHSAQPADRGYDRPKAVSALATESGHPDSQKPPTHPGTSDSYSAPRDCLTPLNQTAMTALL
UniProt Q6UWP2: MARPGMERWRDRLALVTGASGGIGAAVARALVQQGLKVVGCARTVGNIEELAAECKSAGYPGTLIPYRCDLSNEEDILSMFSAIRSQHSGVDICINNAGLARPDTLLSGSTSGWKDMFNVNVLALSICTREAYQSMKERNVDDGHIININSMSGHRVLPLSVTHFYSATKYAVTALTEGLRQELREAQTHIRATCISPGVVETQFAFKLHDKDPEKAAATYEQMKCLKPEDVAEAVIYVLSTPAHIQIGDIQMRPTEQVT
UniProt Q86XP1: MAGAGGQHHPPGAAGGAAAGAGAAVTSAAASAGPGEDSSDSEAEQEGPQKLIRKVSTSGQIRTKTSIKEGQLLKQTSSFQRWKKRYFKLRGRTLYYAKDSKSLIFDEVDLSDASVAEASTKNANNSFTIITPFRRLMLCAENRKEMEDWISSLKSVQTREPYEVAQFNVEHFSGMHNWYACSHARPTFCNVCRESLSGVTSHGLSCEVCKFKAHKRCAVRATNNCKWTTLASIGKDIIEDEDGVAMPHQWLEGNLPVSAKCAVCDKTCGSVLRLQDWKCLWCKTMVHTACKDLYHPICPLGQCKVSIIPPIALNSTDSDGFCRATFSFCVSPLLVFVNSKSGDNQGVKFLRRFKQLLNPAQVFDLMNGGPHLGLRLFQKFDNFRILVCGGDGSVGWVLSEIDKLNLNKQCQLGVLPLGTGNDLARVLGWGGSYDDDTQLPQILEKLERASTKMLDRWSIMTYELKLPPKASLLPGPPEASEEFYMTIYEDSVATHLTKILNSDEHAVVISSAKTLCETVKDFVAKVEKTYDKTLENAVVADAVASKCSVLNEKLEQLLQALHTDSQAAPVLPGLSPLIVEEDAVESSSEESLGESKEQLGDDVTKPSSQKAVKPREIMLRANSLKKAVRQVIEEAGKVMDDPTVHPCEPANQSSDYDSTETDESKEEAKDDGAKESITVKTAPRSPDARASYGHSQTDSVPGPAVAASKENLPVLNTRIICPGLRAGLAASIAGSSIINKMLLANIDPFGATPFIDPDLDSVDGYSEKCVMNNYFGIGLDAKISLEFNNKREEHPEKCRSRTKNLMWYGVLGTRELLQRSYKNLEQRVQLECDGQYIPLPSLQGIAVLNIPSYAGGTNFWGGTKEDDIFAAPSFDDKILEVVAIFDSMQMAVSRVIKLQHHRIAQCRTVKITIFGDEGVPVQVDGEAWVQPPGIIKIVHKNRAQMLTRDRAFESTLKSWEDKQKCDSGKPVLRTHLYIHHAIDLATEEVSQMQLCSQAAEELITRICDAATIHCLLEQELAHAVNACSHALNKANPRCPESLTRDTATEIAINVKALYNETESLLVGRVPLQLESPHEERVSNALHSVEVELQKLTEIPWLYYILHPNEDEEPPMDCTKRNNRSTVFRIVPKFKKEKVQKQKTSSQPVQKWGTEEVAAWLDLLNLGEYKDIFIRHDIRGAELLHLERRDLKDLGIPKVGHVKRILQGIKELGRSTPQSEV
UniProt Q9P000, whole entry: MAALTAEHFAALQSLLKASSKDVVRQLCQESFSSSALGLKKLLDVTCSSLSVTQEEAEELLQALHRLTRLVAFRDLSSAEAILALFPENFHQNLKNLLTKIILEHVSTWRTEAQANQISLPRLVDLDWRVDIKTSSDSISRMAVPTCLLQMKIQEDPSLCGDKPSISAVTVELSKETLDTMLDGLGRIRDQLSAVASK

| Target | dose-dependent thermal stabilisation call |
| --- | --- |
| COMMD6 (UniProt Q7Z4G1) | inactive: 0 |
| COQ9 (UniProt O75208) | inactive: 0 |
| DDX55 (UniProt Q8NHQ9) | inactive: 0 |
| CPNE2 (UniProt Q96FN4) | inactive: 0 |
| DDX59 (UniProt Q5T1V6) | inactive: 0 |
| COMMD3 (UniProt Q9UBI1) | inactive: 0 |
| DIAPH1 (UniProt O60610) | inactive: 0 |
| CYB5B (UniProt O43169) | inactive: 0 |
| CYB5R3 (UniProt P00387) | active: 1 |
| COX7B (UniProt P24311) | inactive: 0 |
| DERL1 (UniProt Q9BUN8) | inactive: 0 |
| DHRS7 (UniProt Q9Y394) | inactive: 0 |
| CXORF26 (UniProt Q9BVG4) | inactive: 0 |
| DGAT1 (UniProt O75907) | inactive: 0 |
| DHX9 (UniProt Q08211) | inactive: 0 |
| DENR (UniProt O43583) | inactive: 0 |
| CXORF15 (UniProt Q9NUQ3) | inactive: 0 |
| CUL1 (UniProt Q13616) | inactive: 0 |
| DCAKD (UniProt Q8WVC6) | inactive: 0 |

| Target | dose-dependent thermal stabilisation call |
| --- | --- |
| CTBP1 (UniProt Q13363) | inactive: 0 |
| CSNK1A1 (UniProt P48729) | inactive: 0 |
| CSTB (UniProt P04080) | inactive: 0 |
| CORO1A (UniProt P31146) | inactive: 0 |
| DDX52 (UniProt Q9Y2R4) | inactive: 0 |
| CPOX (UniProt P36551) | active: 1 |
| COTL1 (UniProt Q14019) | inactive: 0 |
| DARS2 (UniProt Q6PI48) | active: 1 |
| DCBLD1 (UniProt Q8N8Z6) | inactive: 0 |
| DHRS11 (UniProt Q6UWP2) | inactive: 0 |
| DGKH (UniProt Q86XP1) | inactive: 0 |
| CPSF3L (UniProt Q5TA45) | inactive: 0 |
| CWF19L1 (UniProt Q69YN2) | inactive: 0 |
| DGCR8 (UniProt Q8WYQ5) | inactive: 0 |
| COMMD9 (UniProt Q9P000) | inactive: 0 |
| DDHD1 (UniProt Q8NEL9) | inactive: 0 |
| CTDSPL2 (UniProt Q05D32) | inactive: 0 |
| CTR9 (UniProt Q6PD62) | inactive: 0 |

Three successive records out of the list so far, quoted:

| Target | dose-dependent thermal stabilisation call |
| --- | --- |
| DARS2 (UniProt Q6PI48) | active: 1 |
| DCBLD1 (UniProt Q8N8Z6) | inactive: 0 |
| DHRS11 (UniProt Q6UWP2) | inactive: 0 |
